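Viability assay of Plasmodium falciparum sporozoites; the read-out is not stated. The concentration is filed as 10 mM, unlikely as a test dose, so the dose is not known. Direction is inferred from retests: higher values go with lower viability. Strong results were mostly tested again. Of about 34,000 compounds tested this way, about 280 (0.84%) reached 50% or more in at least one test.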

The filed quantity is “Percent Effect” (%).
How 0% and 100% were set is not recorded. Most values in the screen are low, and negative values occur.
The compounds are a random part of those screened.

SMILES,Percent Effect
CN(CCCOc1ccccc1Cl)C(=O)CN1CCNC1=O,2.336%
CN(C)c1ncc(-c2ccc(F)cc2)c(C2CNCCO2)n1.Cl (centres undefined),8.117%
C[S+]([O-])CCNC(=O)N1CCSC2(CCCCC2)C1 (centres undefined),-4.035%
CN1CC(=O)N(c2cccnc2)CC12CCN(C(=O)c1cccnc1)C2.O=C(O)C(F)(F)F.O=C(O)C(F)(F)F (centres undefined),-2.706%
Cc1cccc2nc(CN3CCCC3Cn3cncn3)cn12 (centres undefined),10.19%
CN(Cc1cccc(F)c1)C(=O)CN1CCOC(Cn2cccn2)C1 (centres undefined),-9.778%
Cc1nc(CN(Cc2cccs2)C2CCS(=O)(=O)C2)oc1C (centres undefined),5.623%
Cl.Cl.NCC(=O)N1CCCC(c2ccnc(Nc3cnccn3)n2)C1 (centres undefined),10.19%
CCc1nc(CN2CCCC(NCc3ncc(C(C)(C)C)o3)C2)no1 (centres undefined),4.855%
Cc1ccccc1CN(C)C(=O)CN1CCOC(Cn2cncn2)C1 (centres undefined),6.408%
Cc1cc(F)c(S(=O)(=O)N(C)CCn2cccn2)cc1F,-3.886%
O=C(CC1CC1)N1Cc2nccn2CC(COc2cccnc2)C1 (centres undefined),11.8%
O=C(O)C(F)(F)F.[H][C@@]12CN(Cc3ccsc3)C[C@]1([H])OCCN2c1ccnc(N(C)C)n1,-5.145%
O=C(NCCc1ccncc1)c1cccc(S(=O)(=O)NC2CCOC2)c1 (centres undefined),-15.72%
CN(C)C1CCN(C(=O)c2n[nH]c3c2CCN(CC2CCC2)C3)CC1,3.813%
N#Cc1cccc(SCCS(N)(=O)=O)c1,-14.56%
CCN1CCN(CCNC(=O)c2sc(C(C)C)nc2C)CC1,9.858%
CCOCC1CN(Cc2cnn(C)c2)Cc2nn(CC3CC3)cc21.O=C(O)C(F)(F)F (centres undefined),-13.38%
CCc1cc(C(F)(F)F)c2c(C3CCN(C(=O)COC)CC3)noc2n1,1.752%
Cc1cnc(C)c(N2CCN(Cc3ccc(-c4cc[nH]n4)o3)CC2)n1,6.438%
Cc1cccc(CN2CCn3c(COc4ncccn4)nnc3C2)n1,-3.893%
Clc1ccc(OCCNCCn2cccn2)cc1,1.548%
CO[C@H]1CCN(C(=O)c2cc(C)on2)C[C@@H]1Cc1ccccc1,10.95%
CCc1[nH]ncc1C(=O)N1CCCN(Cc2cnn(C(C)C)c2)CC1,-0.32%
CC(C)N1CC(C(=O)NCCc2csc(-c3ccncc3)n2)CC1=O (centres undefined),-0.8724%
O=C(Nc1cc(C(F)(F)F)c[nH]c1=O)N1CCCSCC1,-3.925%
O=C(O)C(F)(F)F.[H][C@@]12CCN(C)C[C@@]1([H])[C@H](C(=O)NCc1ccco1)CCO2,-4.4%
CC(CNC(=O)c1cnc[nH]1)Oc1ccc(Cl)cc1 (centres undefined),5.73%
[H][C@]12CCN(C(=O)C3CCOC3)C[C@@]1([H])OCCN(S(C)(=O)=O)C2 (some centres undefined),5.254%
CCn1ncc2c1CCCC2NCc1cc(OC)cc(OC)c1 (centres undefined),7.131%
CCN(C(=O)c1nc2c(s1)CCCN2C(C)=O)C(C)C,15.33%
N#Cc1cccnc1NCCNC(=O)N1CCCC(C(F)(F)F)C1 (centres undefined),-17.29%
Cc1ccc(CN(CCN(C)C)C(=O)Nc2cnn(C)c2)s1,22.46%
COCC(O)CN1CCC(=O)N(CC(=O)C(C)(C)C)Cc2ccccc21 (centres undefined),-63.49%
O=C1CC2(CCN(Cc3ccoc3)C2)CN1c1ccc2c(c1)OCO2 (centres undefined),-5.257%
CNC(=O)Nc1cc(-c2ccc(Br)cc2)nn1CCO,-23.79%
CN(C)CCN1CCN(Cc2cccs2)Cc2cccnc21.O=C(O)C(F)(F)F.O=C(O)C(F)(F)F.O=C(O)C(F)(F)F,9.561%
CN(Cc1ccco1)C(=O)NCc1ccnc(SC(C)(C)C)c1,-9.372%
Cc1cc(C)n(C2CCCN(C(=O)c3ccc(N(C)C)nc3)C2)n1 (centres undefined),-1.209%
COc1ccc(CNC(=O)NC2CCC(O)CC2)c(C(F)(F)F)c1 (centres undefined),-19.71%
Cc1ccc(CNC(CN2CCN(C)CC2)c2ccccc2)cc1 (centres undefined),-4.152%
Cc1cc(C)n(C2CN(Cc3ccc(C(=O)N4CCCC4)cc3)C2)n1,-26.86%
O=C(O)C(F)(F)F.O=C(O)C(F)(F)F.[H][C@@]12COC[C@]1(C(=O)NCc1ccccn1)CN(Cc1scnc1C)C2,4.253%
O=C(O)C(F)(F)F.[H][C@@]12CCN(CC3CCOCC3)[C@@]1([H])CCN2C(=O)c1cccc(C#N)c1,1.128%
CCCNC(=O)c1cnc(N(C)C)nc1COC,0.4386%
O=C(CC1CCCC1)NCCn1ccc(-c2ccncc2)n1,-5.475%
Cc1ccnc(C2CN(c3ccnc(C)n3)C2)n1,7.94%
CC(NC(=O)NCc1cccc(N2CCCC2=O)c1)c1ccccc1 (centres undefined),3.931%
O=C(NC[C@H]1CCCC[C@H]1O)c1cccc2[nH]c(-c3ccco3)nc12,-2.912%
O=C(O)C(F)(F)F.O=C(O)C(F)(F)F.[H][C@@]12OCCN(Cc3ccoc3)[C@@]1([H])CC[C@H]2OCCN1CCCC1,8.6%
COc1ccc(OC2CCN(C(=O)CCc3n[nH]c(C)n3)CC2)cc1,-2.847%
Cc1ccc(NC2CCN(C(=O)c3ccnc(N(C)C)c3)CC2)nn1,-4.194%
Cc1ccc(C2(CN3CCN(Cc4cnc(C)n4C)CC3)CC2)cc1.Cl,12.8%
CC(C)c1ncc2c(n1)CN(Cc1cccc(OCC(N)=O)c1)CC2,-12.37%
NC(=O)CC1CCN(C(=O)NCCc2ccc(Cl)s2)CC1,4.307%
CC(C)NC(=O)N1CCN(C(=O)N(C)C)CC2(CC(=O)N(C)C2)C1 (centres undefined),-17.59%
CN(Cc1ccsc1)C(=O)c1cccc(F)c1,-1.635%
[H][C@]12C[C@@H](C(=O)N(C)Cc3ccccn3)CO[C@@]1([H])CCN(CCOC)C2,7.005%
CC(C)Nc1nc(-c2ccccc2)nc2c1CCN(C(=O)C1CC1)CC2.O=C(O)C(F)(F)F,7.861%
CCOCCN1Cc2cnn(C)c2C(COCC)C1.O=C(O)C(F)(F)F.O=C(O)C(F)(F)F (centres undefined),11.11%
CCCNc1ncc(CN2CCOC(Cc3cccc(F)c3)C2)cn1 (centres undefined),-1.99%
CNC(=O)C1(CCCc2ccccn2)CN(Cc2coc(C)n2)C1,-0.6458%
NC[C@H]1CC[C@H](C(NC(=O)CC2CCCC2)c2ccccn2)CC1 (some centres undefined),3.013%
CC(C)CNc1cc(-c2c[nH]nc2C2CCN(C(=O)C3CC3)C2)ccn1 (centres undefined),13.43%
N#Cc1cc(NS(=O)(=O)c2ccc(C(=O)O)cc2F)ccc1F,5.6%
O=C(c1ccncc1F)N1CCc2ncnc(-c3ccncc3)c2CC1,-5.257%
Cl.c1cnc(N2CCCC(NCc3ccc(-n4ccnc4)cc3)C2)nc1 (centres undefined),-2.676%
Cc1ccc(CN2CCc3ncc(CNS(C)(=O)=O)n3CC2)o1.O=C(O)C(F)(F)F,-5.893%
CCO[C@H]1CN(C)C[C@@H]1NC(=O)c1cc(C)nc2c(C)cccc12,-13.69%
O=C(O)C(F)(F)F.O=C(O)C(F)(F)F.c1cnc(N2CCC3(CCN(CC4CCOCC4)CC3)C2)nc1,-5.569%
CC(C)c1nc2n(n1)CC(NCc1nnc(C(C)C)o1)CC2 (centres undefined),14.72%
CC(C)Sc1ncccc1C(=O)NCc1ccc(CS(C)(=O)=O)cc1,-0.9547%
CCCNC(=O)c1cc2c(nc1O)CCC(C)C2 (centres undefined),-7.237%
CS(=O)(=O)NCc1ncn2c1CN(C(=O)C1CCCCC1)CCC2,-15.81%
O=C(O)C(F)(F)F.[H][C@]12CCC[C@@H](CNc3ccccn3)[C@@]1([H])CN(Cc1nccs1)C2,7.411%
COC(=O)N1CCCN(C(=O)c2cccc3cccnc23)CC1,16.72%
Cc1cc(C)n(CCC(=O)N2CCC(Nc3cccnn3)CC2)n1,6.203%
COc1cccc(N2CCN(CCC(=O)NC3CCCCC3)CC2)c1,4.745%
COc1cccc(COCC(=O)N2CCCC(n3ccnc3C)C2)c1 (centres undefined),-6.763%
CCc1nc2n(n1)CCCC2NC(=O)Nc1cccc(F)c1F (centres undefined),-1.891%
CCN1CC2(CC1=O)CN(Cc1cccs1)CCN(C(=O)C(C)C)C2 (centres undefined),-12.18%
COc1ccc(-n2ccc(C(=O)N3CCN(C)CC3C)n2)cc1 (centres undefined),2.126%
CN(Cc1ccsc1)C(=O)c1ccc2c(c1)NC(=O)CO2,6.322%
Cc1nnc(C2Cc3ccccc3CN2Cc2ncc(C(C)(C)C)o2)o1 (centres undefined),9.942%
Cc1cccc(CN2C(=O)CCC23CCN(C(=O)c2ccco2)CC3)c1,-29.68%
CN(C)c1cc(C2CCCN2Cc2ccccc2OCC(=O)O)ccn1 (centres undefined),-6.185%
CC(=O)N1CCC(C(=O)N2CCCC(Cc3cccc(C)n3)C2)CC1 (centres undefined),9.519%
O=S(=O)(c1ccccc1)N1CCC2(CCCN2Cc2cccc(F)c2)C1 (centres undefined),1.117%
Cn1cc(CN2CCCC23CCN(C(=O)c2ccccc2)CC3)cn1.O=C(O)C(F)(F)F,-12.41%
CCCc1nc(C(C)(C)NC(=O)C2CC(=O)N(CCOC)C2)no1 (centres undefined),15.14%
CCN1CCOC(CNCc2csc(C)n2)C1 (centres undefined),-4.671%
Cn1cccc1C(=O)N1CCC2(CC1)CC(N1CCOCC1)C2.O=C(O)C(F)(F)F,-11.55%
O=C(O)C(F)(F)F.O=C(O)C(F)(F)F.[H][C@@]12OCCN(CCOCC)[C@@]1([H])CC[C@H]2OCc1ccccn1,2.811%

For reference, 10 entries once more:

For Cc1cc(C)n(C2CCCN(C(=O)c3ccc(N(C)C)nc3)C2)n1 (centres undefined) the result was -1.209%.
For CN(Cc1ccco1)C(=O)NCc1ccnc(SC(C)(C)C)c1 the result was -9.372%.
For Cc1ccc(C2(CN3CCN(Cc4cnc(C)n4C)CC3)CC2)cc1.Cl the result was 12.8%.
For CC(C)N1CC(C(=O)NCCc2csc(-c3ccncc3)n2)CC1=O (centres undefined) the result was -0.8724%.
For CC(C)NC(=O)N1CCN(C(=O)N(C)C)CC2(CC(=O)N(C)C2)C1 (centres undefined) the result was -17.59%.
For Cc1ccnc(C2CN(c3ccnc(C)n3)C2)n1 the result was 7.94%.
For CCc1nc(CN2CCCC(NCc3ncc(C(C)(C)C)o3)C2)no1 (centres undefined) the result was 4.855%.
For Cc1cc(C)n(CCC(=O)N2CCC(Nc3cccnn3)CC2)n1 the result was 6.203%.
For Cc1ccc(CN(CCN(C)C)C(=O)Nc2cnn(C)c2)s1 the result was 22.46%.
For O=C(O)C(F)(F)F.[H][C@@]12CCN(CC3CCOCC3)[C@@]1([H])CCN2C(=O)c1cccc(C#N)c1 the result was 1.128%.

Source: ChEMBL document CHEMBL3988442, “University of Dundee, Small-Polar-MMV Screening Library” (2021).